Consider one compound from patent US20210308034A1, “PREBIOTIC COMPOSITIONS AND METHODS FOR MAINTAINING A HEALTHY SKIN MICROBIOTA” (KIMBERLY-CLARK WORLDWIDE, INC., priority 2018, published 2021).

The test system of the experiment is Pseudomonas aeruginosa (ATCC 9027). In kind it is cell-based. The following applies: Pathogenic; carbon microarray plate, OD 600 nm, 36 hr, 33° C.; positive = more than 0.05 OD units above zero; blank cell = not utilized. The text has this:
After creating desired ratios of various commensal skin bacteria in a healthy skin microbiome, 188 different carbohydrate sources were screened as the next step in determining potential prospects for skin microbiota balancing agents. The screening process was set up to determine which carbohydrate sources promoted commensal and/or pathogenic bacteria as well as to obtain individual and combinations of carbohydrate sources that could serve as microbiota balancing agents that can support or maintain the healthy proportions of commensal skin bacteria of Corynebacterium, Staphylococcus, and Micrococcus. The screening was conducted utilizing Biolog phenotype microarray plates (Hayward, Calif.). Table 1 provides a coded list of the commensal and pathogenic skin bacteria that the carbohydrates were screened against.
Table 2 provides the results of screening various carbohydrate sources against the commensal and pathogenic bacteria codes listed in Table 1. The Bacteria Codes B, D, E, I, and J are commensal bacteria and are shaded in Table 2 for references purposes. […]
A tenfold dilution in M9*1 media was performed using 1 mL of the washed bacterial culture. Of the tenfold dilution 200 μL was placed in an untreated 96-well plate (Falcon, Pasadena Tx.) for an initial optical density (OD) reading at a wavelength of 600 nm. […]

Molecules are shown by their SMILES.

As to `NCCC[C@H](N)C(=O)O` [L-Ornithine], the “Carbohydrate Screening Results, Bacteria Code F” value is given as “Y”.
